Data set [1] can be described thus: peptide synthesis. To be noted: whole synthesis.
Data set [2] is described as follows: peptide synthesis. The settings on record: whole synthesis. The source holds these as a separate data set.

Where a sequence shows no end group, the ends are not given.

With “GPGGDKCRCVFHWVCCYVS (GPGGDKCRCVFHWCCYVS; The sequence is synthetized)”, the “final HPLC purity” value in “peptide synthesis [1]” is on record as “purity=96.59%”.

For the sequence “CKPLRLSKEEHPLK (The sequence is synthetized)”, in “peptide synthesis [2]”, the “final HPLC purity” value is listed as “purity=96.15%”.

For the origin of these results see patent publication US11912793B2 (SICHUAN UNIVERSITY, priority 2022, dated 2024).
